These are yes or no findings as the source states them, for the method shown. For part of these data: Binding seen in cells or lysates may run through a third protein. Some entries that bind do so weakly or less than the wild type.
Tests used:
Survivin (human) [1] = biological target: Survivin (human) (UniProt O15392); assay: yeast two-hybrid in S. cerevisiae EGY48/pSH18-32 (LexA and Gal4 activation domain fusions); growth without leucine and blue colour on X-Gal
[2] = biological target: Gal4 DB domain fused to the full length survivin (human) (UniProt O15392); assay: yeast two-hybrid screen (Proquest) with pDBLeu-Survivin as bait against HeLa and fetal brain cDNA libraries; 25 mM 3-aminotriazole selection
Survivin (human) [3] = biological target: Survivin (human) (UniProt O15392); assay: co-immunoprecipitation with V5 antibody, from HeLa cells and of in vitro translated proteins

By UniProt entry, the sequences of proteins in these tests, tags left out.
UniProt O15392: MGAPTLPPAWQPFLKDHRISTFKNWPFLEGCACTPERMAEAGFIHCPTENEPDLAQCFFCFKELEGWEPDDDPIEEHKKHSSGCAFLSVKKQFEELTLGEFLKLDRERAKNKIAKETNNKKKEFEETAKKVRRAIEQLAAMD

Measured: binding

B1: Survivin Interacting Protein 1 (protein)
chain: MEASVILPILKKKLAFLSGGKDRRSGLILTIPLCLEQTNMDELSVTLDYLLSIPSEKCKARGFTVIVDGRKSQWNVVKTVVVMLQNVVPAEVSLVCVVKPDEFWDKKVTHFCFWKEKDRLGFEVILVSANKLTRYIEPCQLTEDFGGSLTYDHMDWLNKRLVFEKFTKESTSLLDELALINNGSDKGNQQEKERSVDLNFLPSVDPETVLQTGHELLSELQQRRFNGSDGGVSWSPMDDELLAQPQVMKLLDSLREQYTRYQEVCRQRSKRTQLEEIQQKVMQVVNWLEGPGSEQLRAQWGIGDSIRASQALQQKHEEIESQHSEWFAVYVELNQQIAALLNAGDEEDLVELKSLQQQLSDVCYRQASQLEFRQNLLQAALEFHGVAQDLSQQLDGLLGMLCVDVAPADGASIQQTLKLLEEKLKSVDVGLQGLREKGQGLLDQISNQASWAYGKDVTIENKENVDHIQGVMEDMQLRKQRCEDMVDVRRLKMLQMVQLFKCEEDAAQAVEWLSELLDALLKTHIRLGDDAQETKVLLEKHRKFVDVAQSTYDYGRQLLQATVVLCQSLRCTSRSSGDTLPRLNRVWKQFTIASEERVHRLEMAIAFHSNAEKILQDCPEEPEAINDEEQFDEIEAVGKSLLDRLTVPVVYPDGTEQYFGSPSDMASTAENIRDRMKLVNLKRQQLRHPEMVTTES
binds: Survivin (human) [1] | [2] | Survivin (human) [3]
